Assay results taken from US20230009366A1, “Using Alternating Electric Fields at Different Frequencies to Increase Permeability of the Blood Brain Barrier and also to Provide Other Benefits” (Novocure GmbH, priority 2021, published 2023).
Like-named read-outs stand apart in the source and are kept apart here. At least one compound was matched to its structure with a doubt left.

Tests used:
GBM = settings: cited from earlier work
GBM39 cells = experiment: Drug sensitivity with TTFields; format: cell-based, human; settings: TTFields for 3 days vs no TTFields

**Q.** Which “percent increase in overall survival, TTFields plus temozolomide vs temozolomide alone” value (GBM; after 1 year of TTFields exposure) does the source give for `Cn1nnc2c(C(N)=O)ncn2c1=O` [Temozolomide] here?
**A.** 32%

**Q.** And the “percent increase in overall survival, TTFields plus temozolomide vs temozolomide alone” value (GBM; after 5 years of TTFields exposure)?
**A.** 551%

**Q.** What about the “sensitivity of cells to drug” value (GBM39 cells) of the same molecule?
**A.** improves the sensitivity
